Patent US10357572B2, “Prodrugs activated by caspase” (priority 2014, dated 2019)
At least one peptide structure holds a part that was inferred or is arguable (an end, a ring closure or a residue). Starred links: 1 amine or outer side, 2 acyl side, 3 side chain; linkers in the order of their positions; H or OH if unused. Non-standard residues stand in square brackets, D forms with d. Residues, ends and D or L forms follow the SMILES beside them. *: point of attachment. Doxorubicin(3'-N) = COc1cccc2c1C(=O)c1c(O)c3c(c(O)c1C2=O)C[C@@](O)(C(=O)CO)C[C@@H]3O[C@H]1C[C@H](N*)[C@H](O)[C@H](C)O1; Hexanoyl(6-maleimido) = O=C1C=CC(=O)N1CCCCCC(=O)*; PABC = O=C(OCc1ccc(N[*:1])cc1)[*:2]

Sequences of proteins named here, by UniProt entry; tags and fusion partners are left off. Residues count along the entry.
UniProt P02768, 25-609: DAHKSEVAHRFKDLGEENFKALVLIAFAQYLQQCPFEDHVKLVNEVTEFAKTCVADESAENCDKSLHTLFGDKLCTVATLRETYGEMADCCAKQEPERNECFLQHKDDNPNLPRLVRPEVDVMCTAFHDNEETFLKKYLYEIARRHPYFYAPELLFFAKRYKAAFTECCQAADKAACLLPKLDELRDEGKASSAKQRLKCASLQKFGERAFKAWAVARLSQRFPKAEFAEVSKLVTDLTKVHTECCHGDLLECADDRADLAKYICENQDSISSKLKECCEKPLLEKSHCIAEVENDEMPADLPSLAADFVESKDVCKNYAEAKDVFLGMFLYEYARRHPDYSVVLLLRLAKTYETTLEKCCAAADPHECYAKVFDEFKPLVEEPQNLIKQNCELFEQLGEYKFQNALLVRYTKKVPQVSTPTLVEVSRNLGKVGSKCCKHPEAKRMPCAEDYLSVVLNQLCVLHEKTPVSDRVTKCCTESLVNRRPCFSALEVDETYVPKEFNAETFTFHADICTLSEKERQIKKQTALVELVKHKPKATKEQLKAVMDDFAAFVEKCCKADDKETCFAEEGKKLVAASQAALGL

Legend:
[1] = tested on: SCC7-bearing C3H/HeN mice; assay: Tumor growth suppression at different doses with radiation at the initial dosing; assay type: in vivo; conditions: single 4 Gy X-ray
[2] = tested on: SCC7-bearing C3H/HeN mice; assay: Tumor growth suppression with or without initial radiation; assay type: in vivo; conditions: i.v. equivalent to 1 mg/kg doxorubicin daily for seven days
[3] = target: T1, human serum albumin (HSA) (Homo sapiens, UniProt P02768); assay: HPLC monitored binding study on commercially available human serum albumin
T1 construct: purchased

[4] = target: T2, human serum albumin in human plasma (Homo sapiens, UniProt P02768); assay: HPLC monitored binding study on human serum albumin in human plasma
T2 construct: from tissue; host or cells: human plasma

[5] = 100 μM conjugate, 700 μM HSA in PBS, room temperature, HPLC

Compound: COc1cccc2c1C(=O)c1c(O)c3c(c(O)c1C2=O)C[C@@](O)(C(=O)CO)C[C@@H]3O[C@H]1C[C@H](NC(=O)OCc2ccc(NC(=O)[C@H](CC(=O)O)NC(=O)[C@@H](NC(=O)[C@H](CCC(=O)O)NC(=O)[C@H](CC(=O)O)NC(=O)CNC(=O)[C@H](CCCCNC(=O)CCCCCN3C(=O)C=CC3=O)NC(C)=O)C(C)C)cc2)[C@H](O)[C@H](C)O1 [maleimide-KGDEVD-PABC-doxorubicin, Ac-Lys(EMC)-Gly-Asp-Glu-Val-Asp-PABC-doxorubicin] (Ac-K(Hexanoyl(6-maleimido))GDEVD[PABC]-{Doxorubicin(3'-N)})
- anti-tumor effect by dose ([1]; 1, 5 or 10 mg/kg molar equivalent of doxorubicin i.v. every other day for two weeks): dose-dependent anti-tumor effect
- tumor suppression effect compared with free doxorubicin at an equivalent dose ([1]; equivalent dose (1 mg/kg) i.v. every other day for two weeks): superior tumor suppression effect as compared to free doxorubicin
- tumor suppression effect compared with AcKGDEVD-PABC-doxorubicin [2]: more superior tumor suppression effect than AcKGDEVD-PABC-doxorubicin
- anticancer effect combined with a single dose of radiation ([2]; single 4 Gy X-ray at first day): a sufficient anticancer effect was observed
- time until binding of the conjugate to HSA was accomplished [3, 5]: ≤ 3 min
- unbound substance detected after binding to HSA [3, 5]: only a trace amount
- binding to HSA preincubated with 4-maleimidobutyric acid ([3]; HSA preincubated with 4-maleimidobutyric acid, even after 1 hour incubation): no binding
- time until binding of the conjugate to the serum albumin was accomplished ([4]; 100 μM conjugate in human plasma, room temperature, HPLC): ≤ 3 min
- binding to serum albumin in plasma preincubated with 4-maleimidobutyric acid ([4]; plasma preincubated with 4-maleimidobutyric acid, even after 1 hour incubation): no evidence of binding
